In patent US7169590B2, “Method of stabilizing reduced coenzyme Q10 and method of acidic crystallization” (Kaneka Corporation, priority 2001, dated 2007):
At least one compound was matched to its structure with a doubt left.

Assays:
Assay type in all cases: physicochemical
[1] = Oxidation stability of reduced coenzyme Q10 in 1 w/w % ethanol solution with added acid (HPLC weight ratio); settings: after 24 hours; for R: Reduced coenzyme Q10/oxidized coenzyme Q10 weight ratio: 1 w/w % ethanol solution
[2] = Oxidation stability of reduced coenzyme Q10 in 1 w/w % dimethylformamide solution with added acid (HPLC weight ratio); settings: stirred in the air, after 24 hours
[3] = Oxidation stability of reduced coenzyme Q10 in various solvents, stirred in the air at 35° C. (HPLC weight ratio); settings: 24 hours stirring in the air at 35° C., starting ratio 99.6/0.4
[4] = Oxidation stability of reduced coenzyme Q10 in various solvents, stirred in the air at 25° C. (HPLC weight ratio); settings: 24 hours stirring in the air at 25° C., starting ratio 99.6/0.4

In the case of COc1c(O)c(C)c(C/C=C(\C)CC/C=C(\C)CC/C=C(\C)CC/C=C(\C)CC/C=C(\C)CC/C=C(\C)CC/C=C(\C)CC/C=C(\C)CC/C=C(\C)CCC=C(C)C)c(O)c1OC [reduced coenzyme Q10], the “R: Reduced coenzyme Q10/oxidized coenzyme Q10 weight ratio” value ([1]; acetic acid 100 mmol/kg of ethanol (comparison), stirred in the air) is reported as 59.0/41.0, the “R: Reduced coenzyme Q10/oxidized coenzyme Q10 weight ratio” value ([1]; hydrogen chloride (as 12 N hydrochloric acid) 100 mmol/kg of ethanol, 1000 mol %, stirred in the air) is reported as 98.7/1.3 and the “R: Reduced coenzyme Q10/oxidized coenzyme Q10 weight ratio” value ([1]; methanesulfonic acid 100 mmol/kg of ethanol, 1000 mol %, stirred in the air) is reported as 97.8/2.2. For the same compound, the “R: Reduced coenzyme Q10/oxidized coenzyme Q10 weight ratio” value ([1]; no acid addition (control), stirred in the air) was 54.0/46.0, the “R: Reduced coenzyme Q10/oxidized coenzyme Q10 weight ratio” value ([1]; sulfuric acid 100 mmol/kg of ethanol, 1000 mol %, stirred in the air) was 98.8/1.2 and the “reduced coenzyme Q10/oxidized coenzyme Q10 weight ratio in the ethanol solution” value ([1]; Example 3: 1 w/w % ethanol solution, hydrogen chloride 100 mmol/kg, 1000 mol %, stirred in a nitrogen atmosphere) was 99.4/0.6. The “reduced coenzyme Q10/oxidized coenzyme Q10 weight ratio in the ethanol solution” value ([1]; Example 4: 1 w/w % ethanol solution, hydrogen chloride 10 mmol/kg of ethanol, 100 mol %, stirred in the air) was 98.7/1.3, the “reduced coenzyme Q10/oxidized coenzyme Q10 weight ratio in the ethanol solution” value ([1]; Example 5: 1 w/w % ethanol solution, hydrogen chloride 1 mmol/kg of ethanol, 10 mol %, stirred in the air) was 98.7/1.3 and the “reduced coenzyme Q10/oxidized coenzyme Q10 weight ratio in the ethanol solution” value ([1]; Example 6: 1 w/w % ethanol solution, hydrogen chloride 0.1 mmol/kg of ethanol, 1 mol %, stirred in the air) was 98.5/1.5. The “R: Reduced coenzyme Q10/oxidized coenzyme Q10 weight ratio” value ([2]; acetic acid 100 mmol/kg of dimethylformamide (comparison)) was 65.0/35.0, the “R: Reduced coenzyme Q10/oxidized coenzyme Q10 weight ratio” value ([2]; hydrogen chloride (as 12 N hydrochloric acid) 100 mmol/kg of dimethylformamide, 1000 mol %) was 99.2/0.8 and the “R: Reduced coenzyme Q10/oxidized coenzyme Q10 weight ratio” value ([2]; methanesulfonic acid 100 mmol/kg of dimethylformamide, 1000 mol %) was 99.0/1.0. The “R: Reduced coenzyme Q10/oxidized coenzyme Q10 weight ratio” value ([2]; no acid addition (control)) was 75.1/24.9, the “R: Reduced coenzyme Q10/oxidized coenzyme Q10 weight ratio” value ([2]; sulfuric acid 100 mmol/kg of dimethylformamide, 1000 mol %) was 99.4/0.6 and the “R: Reduced coenzyme Q10/oxidized coenzyme Q10 weight ratio” value ([3]; 1 g in 100 g acetonitrile) was 96.0/4.0. For the same compound, the “R: Reduced coenzyme Q10/oxidized coenzyme Q10 weight ratio” value ([3]; 1 g in 100 g ethyl acetate) was 96.4/3.6, the “R: Reduced coenzyme Q10/oxidized coenzyme Q10 weight ratio” value ([3]; 1 g in 100 g heptane) was 96.7/3.3 and the “R: Reduced coenzyme Q10/oxidized coenzyme Q10 weight ratio” value ([4]; 1 g in 20 g chloroform) was 98.9/1.1. The “R: Reduced coenzyme Q10/oxidized coenzyme Q10 weight ratio” value ([4]; 1 g in 20 g ethyl acetate) was 98.9/1.1, the “R: Reduced coenzyme Q10/oxidized coenzyme Q10 weight ratio” value ([4]; 1 g in 20 g heptane) was 99.1/0.9 and the “R: Reduced coenzyme Q10/oxidized coenzyme Q10 weight ratio” value ([4]; 1 g in 20 g hexane) was 98.7/1.3. For the same compound, the “R: Reduced coenzyme Q10/oxidized coenzyme Q10 weight ratio” value ([4]; 1 g in 20 g methyl tert-butyl ether) was 98.6/1.4, the “R: Reduced coenzyme Q10/oxidized coenzyme Q10 weight ratio” value ([4]; 1 g in 20 g tetrahydrofuran) was 98.5/1.5 and the “R: Reduced coenzyme Q10/oxidized coenzyme Q10 weight ratio” value ([4]; 1 g in 20 g toluene) was 98.8/1.2.
